Test results taken from patent US20060100431A1, “Biologically active compounds” (Amura Therapeutics Limited, priority 2002, published 2006).
Some results were stated once for a whole list of compounds, not compound by compound. Some ranges recur; such a range may be that of the whole group of compounds.

Molecular target: T1, human cathepsin K (Homo sapiens, UniProt P43235)
T1 construct: Dr. Boris Turk (Josef Stefan Institute, Ljubljana, Slovenia)
T1 sequence (P43235 115-329): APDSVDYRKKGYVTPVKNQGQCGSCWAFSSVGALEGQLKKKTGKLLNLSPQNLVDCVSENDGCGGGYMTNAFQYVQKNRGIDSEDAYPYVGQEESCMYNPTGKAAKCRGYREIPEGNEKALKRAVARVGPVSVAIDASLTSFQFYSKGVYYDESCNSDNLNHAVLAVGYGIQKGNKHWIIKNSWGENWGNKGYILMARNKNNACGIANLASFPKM
Assay: Cathepsin K peptidase activity assay (Ki)
Type: biochemical
Outline: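 Buffer: 10 mM bis-tris-propane pH 6.5, 1 mM EDTA, 5 mM 2-mercaptoethanol, 1 mM CaCl2; DMSO <1%. Ki assumed reversible, pure-competitive, from Ki^app=Ki(1+[So]/KM^app) by non-linear regression.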

Compound | Ki, inhibitors of cathepsin K [nM]
CCCC(C)C(=O)N1CC(=O)[C@@H]2[C@H]1CCN2C(=O)[C@H](CC(C)C)NC(=O)c1ccc(N(C)C)cc1 (stereo partly drawn) [Example 230, (3aR,6aS)-4-Dimethylamino-N-{(1S)-3-methyl-1-[4-(2-methyl-pentanoyl)-6-oxo-hexahydro-pyrrolo[3,2-b]pyrrole-1-carbonyl]-butyl}-benzamide] | 1 to 5000
Cc1cccc(C(=O)N2CC(=O)[C@@H]3[C@H]2CCN3C(=O)[C@H](CC(C)C)NC(=O)c2ccc(N(C)C)cc2)c1 [Example 54, (3aR,6aS)-4-Dimethylamino-N-{(1S)-3-methyl-1-[4-(3-methyl-benzoyl)-6-oxo-hexahydro-pyrrolo[3,2-b]pyrrole-1-carbonyl]-butyl}-benzamide] | 1 to 5000
CC(C)C[C@H](NC(=O)c1ccc(Oc2ccccc2)cc1)C(=O)N1CC[C@@H]2[C@H]1C(=O)CN2C(=O)c1ccccc1 [Example 39, (3aR,6aS)-N-[(1S)-1-(4-Benzoyl-6-oxo-hexahydro-pyrrolo[3,2-b]pyrrole-1-carbonyl)-3-methyl-butyl]-4-phenoxy-benzamide] | 1 to 5000
CC(C)C[C@H](NC(=O)c1cccc(CN)c1)C(=O)N1CC[C@@H]2[C@H]1C(=O)CN2C(=O)[C@@H](N)c1ccccc1 [Example 182, (3aR,6aS)-3-Aminomethyl-N-{(1S)-1-[4-((2S)-2-amino-2-phenyl-acetyl)-6-oxo-hexahydro-pyrrolo[3,2-b]pyrrole-1-carbonyl)-3-methyl-butyl}-benzamide] | 1 to 5000
CC(=O)N[C@@H](CCC(C)C)C(=O)N1CC(=O)[C@@H]2[C@H]1CCN2C(=O)[C@H](CC(C)C)NC(=O)c1ccc(N(C)C)cc1 [Example 214, (3aR,6aS)-N-{(1S)-1-[4-((2S)-2-Acetylamino-5-methyl-hexanoyl)-6-oxo-hexahydro-pyrrolo[3,2-b]pyrrole-1-carbonyl]-3-methyl-butyl}-4-dimethylamino-benzamide] | 1 to 5000
CC(C)C[C@H](NC(=O)c1cccc(CN)c1)C(=O)N1CC[C@@H]2[C@H]1C(=O)CN2C(=O)Cc1ccc(F)cc1 [Example 180, (3aR,6aS)-3-Aminomethyl-N-((1S)-1-{4-[2-(4-fluoro-phenyl)-acetyl]-6-oxo-hexahydro-pyrrolo[3,2-b]pyrrole-1-carbonyl}-3-methyl-butyl)-benzamide] | 1 to 5000
CC(C)C[C@H](NC(=O)c1ccc(N(C)C)cc1)C(=O)N1CC[C@@H]2[C@H]1C(=O)CN2C(=O)CN [Example 198, (3aR,6aS)-N-{(1S)-1-[4-(2-Amino-acetyl)-6-oxo-hexahydro-pyrrolo[3,2-b]pyrrole-1-carbonyl]-3-methyl-butyl}-4-dimethylamino-benzamide] | 1 to 5000
O=C(N[C@@H](CC1CC1)C(=O)N1CC[C@@H]2[C@H]1C(=O)CN2C(=O)c1ccccc1)c1ccsc1 [Example 187, (3aR,6aS)-Thiophene-3-carboxylic acid [(1S)-2-(4-benzoyl-6-oxo-hexahydro-pyrrolo[3,2-b]pyrrole-1-yl)-1-cyclopropylmethyl-2-oxo-ethyl]-amide] | 1 to 5000
CC(C)C[C@H](NC(=O)c1ccc(N(C)C)cc1)C(=O)N1CC[C@@H]2[C@H]1C(=O)CN2C(=O)[C@@H]1CCCN1 [Example 156, (3aR,6aS)-4-Dimethylamino-N-{(1S)-3-methyl-1-[6-oxo-4-((2S)-pyrrolidine-2-carbonyl)-hexahydro-pyrrolo[3,2-b]pyrrole-1-carbonyl]-butyl}-benzamide] | 1 to 5000
CC(C)C[C@H](NC(=O)c1ccc([N+](C)(C)[O-])cc1)C(=O)N1CC[C@@H]2[C@H]1C(=O)CN2C(=O)c1ccccc1 [Example 117, (3aR,6aS)-N-[(1S)-1-(4-Benzoyl-6-oxo-hexahydro-pyrrolo[3,2-b]pyrrole-1-carbonyl)-3-methyl-butyl]-4-(N-oxy-dimethylamino)-benzamide] | 1 to 5000
CC(C)C[C@H](NC(=O)c1ccc2ncccc2c1)C(=O)N1CC[C@@H]2[C@H]1C(=O)CN2C(=O)c1ccccc1 [Example 86, (3aR,6aS)-Quinoline-6-carboxylic acid [(1S)-1-(4-benzoyl-6-oxo-hexahydro-pyrrolo[3,2-b]pyrrole-1-carbonyl)-3-methyl-butyl]-amide] | 1 to 5000
CC(C)C[C@H](NC(=O)c1ccc(N(C)C)cc1)C(=O)N1CC[C@@H]2[C@H]1C(=O)CN2C(=O)c1ccc(F)c(F)c1 [Example 116, (3aR,6aS)-N-{(1S)-1-[4-(3,4-Difluoro-benzoyl)-6-oxo-hexahydro-pyrrolo[3,2-b]pyrrole-1-carbonyl]-3-methyl-butyl}-4-dimethylamino-benzamide] | 1 to 5000
CC(C)C[C@H](NC(=O)c1cccc(CN)c1)C(=O)N1CC[C@@H]2[C@H]1C(=O)CN2C(=O)Cc1cccc(F)c1 [Example 179, (3aR,6aS)-3-Aminomethyl-N-((1S)-1-{4-[2-(3-fluoro-phenyl)-acetyl]-6-oxo-hexahydro-pyrrolo[3,2-b]pyrrole-1-carbonyl}-3-methyl-butyl)-benzamide] | 1 to 5000
CC(C)C[C@H](NC(=O)c1ccc(N2CCOCC2)cc1)C(=O)N1CC[C@@H]2[C@H]1C(=O)CN2S(=O)(=O)c1ccccc1 [Example 122, (3aR,6aS)-N-[(1S)-1-(4-Benzenesulfonyl-6-oxo-hexahydropyrrolo [3,2-b]pyrrole-1-carbonyl)-3-methyl-butyl]-4-morpholin-4-yl-benzamide] | 1 to 5000
Cc1ccc(C(=O)N2CC(=O)[C@@H]3[C@H]2CCN3C(=O)[C@H](CC(C)C)NC(=O)c2ccc(N(C)C)cc2)cc1C [Example 114, (3aR,6aS)-4-Dimethylamino-N-{(1S)-1-[4-(3,4-dimethyl-benzoyl)-6-oxo-hexahydro-pyrrolo[3,2-b]pyrrole-1-carbonyl]-3-methyl-butyl}-benzamide] | 1 to 5000
COC1CCCC(C(=O)N2CC(=O)[C@@H]3[C@H]2CCN3C(=O)[C@H](CC(C)C)NC(=O)c2ccc(N(C)C)cc2)C1 (stereo partly drawn) [Example 139, (3aR,6aS)-4-Dimethylamino-N-{(1S)-1-[4-(3-methoxy-cyclohexanecarbonyl)-6-oxo-hexahydro-pyrrolo[3,2-b]pyrrole-1-carbonyl]-3-methyl-butyl}-benzamide] | 1 to 5000
CC(C)C[C@H](NC(=O)c1ccc(N(C)C)cc1)C(=O)N1CC[C@@H]2[C@H]1C(=O)CN2C(=O)c1ccccc1OC(F)(F)F [Example 168, (3aR,6aS)-4-Dimethylamino-N-{(1S)-3-methyl-1-[6-oxo-4-(2-trifluoromethoxy-benzoyl)-hexahydro-pyrrolo[3,2-b]pyrrole-1-carbonyl]-butyl}-benzamide] | 1 to 5000
CC(C)C[C@H](NC(=O)c1cccc(CN)c1)C(=O)N1CC[C@@H]2[C@H]1C(=O)CN2C(=O)c1ccccc1 [Example 92, (3aR,6aS)-3-Aminomethyl-N-[(1S)-1-(4-benzoyl-6-oxo-hexahydro-pyrrolo[3,2-b]pyrrole-1-carbonyl)-3-methyl-butyl]-benzamide] | 1 to 5000
Cc1c(C(=O)N[C@@H](CC(C)C)C(=O)N2CC[C@@H]3[C@H]2C(=O)CN3C(=O)c2cccnc2)oc2ccccc12 [Example 17, (3aR,6aS)-3-Methyl-benzofuran-2-carboxylic acid {(1S)-3-methyl-1-[6-oxo-4-(pyridine-3-carbonyl)-hexahydro-pyrrolo[3,2-b]pyrrole-1-carbonyl]-butyl}-amide] | 1 to 5000
CC(C)C[C@H](NC(=O)c1ccc(N(C)C)cc1)C(=O)N1CC[C@@H]2[C@H]1C(=O)CN2C(=O)c1cccc(S(C)(=O)=O)c1 [Example 43, (3aR,6aS)-4-Dimethylamino-N-{(1S)-1-[4-(3-methanesulfonyl-benzoyl)-6-oxo-hexahydro-pyrrolo[3,2-b]pyrrole-1-carbonyl]-3-methyl-butyl}-benzamide] | 1 to 5000
CC(=O)N1CC(=O)[C@@H]2[C@H]1CCN2C(=O)[C@H](CC(C)C)NC(=O)c1ccc(N(C)C)cc1 [Example 110, (3aR,6aS)-N-[(1S)-1-(4-Acetyl-6-oxo-hexahydro-pyrrolo[3,2-b]pyrrole-1-carbonyl)-3-methyl-butyl]-4-dimethylamino-benzamide] | 1 to 5000
CC(C)C[C@H](NC(=O)c1ccc(N(C)C)cc1)C(=O)N1CC[C@@H]2[C@H]1C(=O)CN2C(=O)c1cccc(OC(F)(F)F)c1 [Example 70, (3aR,6aS)-4-Dimethylamino-N-{(1S)-3-methyl-1-[6-oxo-4-(3-trifluoromethoxy-benzoyl)-hexahydro-pyrrolo[3,2-b]pyrrole-1-carbonyl]-butyl}-benzamide] | 1 to 5000
CC(C)CC(C(=O)N1CC[C@@H]2[C@H]1C(=O)CN2C(=O)c1ccccc1)c1cccc(-c2ccccc2)c1 (stereo partly drawn) [Example 189, (3aS,6aR)-1-Benzoyl-4-(2-biphenyl-3-yl-4-methyl-pentanoyl)-hexahydro-pyrrolo[3,2-b]pyrrol-3-one] | 1 to 5000
CC(C)C[C@H](NC(=O)c1ccc(C(C)(C)C)cc1)C(=O)N1CC[C@@H]2[C@H]1C(=O)CN2C(=O)[C@@H](N)CC(C)C [Example 192, (3aR,6aS)-N-{(1S)-1-[4-((2S)-2-Amino-4-methyl-pentanoyl)-6-oxo-hexahydro-pyrrolo[3,2-b]pyrrole-1-carbonyl]-3-methyl-butyl}-4-tert-butyl-benzamide] | 1 to 5000
CC(C)C[C@H](NC(=O)c1ccc([N+](=O)[O-])cc1)C(=O)N1CC[C@@H]2[C@H]1C(=O)CN2C(=O)c1cccc(S(C)(=O)=O)c1 [Example 58, (3aR,6aS)-N-{(1S)-1-[4-(3-Methanesulfonyl-benzoyl)-6-oxo-hexahydro-pyrrolo[3,2-b]pyrrole-1-carbonyl]-3-methyl-butyl}-4-nitro-benzamide] | 1 to 5000
